Record: PubChem BioAssay AID743121 (NCATS, 2013)
Aim: 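Partners whose loss is lethal together with topoisomerase I blockade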 (primary screen). System: MDA-MB-231 cells, a human breast cancer line. Knock-down reagent: single siRNA against human genes, 20 nM siRNA (0.8 pmol per well). Duration: 120 h (drug added 48 h after transfection, read 72 h later). Conditions: camptothecin 20 nM (about EC30) for 72 h; vehicle 0.1% DMSO in parallel plates. Measurement: 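CellTiter-Glo ATP signal, scaled to control siRNA as percent viability; sensitisation given as log2 of untreated divided by camptothecin-treated viability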. Reading the numbers: log2 vehicle/camptothecin viability: higher = stronger sensitisation to camptothecin. Active means: 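Active genes have an RSA gene-level p-value below 0.001, computed from the ratios of their separate siRNAs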.
The deposit covers about 26,000 reagents; shown is an unselected part. Of all reagents, 167 (0.63%) are marked active. 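Calls are per gene from RSA p-values that are not deposited; an individual active-marked siRNA can sensitise only weakly.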 A number with no mark means an inactive call. The numbers tell different reagents against one gene apart. Not all columns of the deposit are shown. Reagent sequences are not shown.

no.	gene	reagent	log2 vehicle/camptothecin viability
1	TTK (TTK protein kinase)	1	-0.726
2	TTK (TTK protein kinase)	2	-0.251
3	TTK (TTK protein kinase)	3	-0.63
4	TTK (TTK protein kinase)	4	-0.752
5	TNIK (TRAF2 and NCK interacting kinase)	1	-0.0437
6	TNIK (TRAF2 and NCK interacting kinase)	2	0.124
7	TNIK (TRAF2 and NCK interacting kinase)	3	-0.712
8	TNIK (TRAF2 and NCK interacting kinase)	4	-0.193
9	RHBDF1 (rhomboid 5 homolog 1)	1	-0.349
10	RHBDF1 (rhomboid 5 homolog 1)	2	0.972
11	RHBDF1 (rhomboid 5 homolog 1)	3	0.291
12	CTRC (chymotrypsin C)	1	-0.446
13	CTRC (chymotrypsin C)	2	-0.178
14	CTRC (chymotrypsin C)	3	-0.154
15	CTRC (chymotrypsin C)	4	-0.376
16	SPR (sepiapterin reductase)	1	-0.256
17	SPR (sepiapterin reductase)	2	0.0272
18	SPR (sepiapterin reductase)	3	0.0638
19	SPR (sepiapterin reductase)	4	0.0825
20	IGF2 (insulin like growth factor 2)	1	-0.245
21	IGF2 (insulin like growth factor 2)	2	0.486
22	IGF2 (insulin like growth factor 2)	3	-0.276
23	SKP1 (S-phase kinase associated protein 1)	1	0.605
24	SKP1 (S-phase kinase associated protein 1)	2	0.168
25	SKP1 (S-phase kinase associated protein 1)	3	-0.333
26	SKP1 (S-phase kinase associated protein 1)	4	-0.364
27	SPRYD7 (SPRY domain containing 7)	1	0.0259
28	SPRYD7 (SPRY domain containing 7)	2	0.0357
29	SPRYD7 (SPRY domain containing 7)	3	0.0278
30	SPRYD7 (SPRY domain containing 7)	4	0.349

The list goes on (5 carried over from the part before).
no.	gene	reagent	log2 vehicle/camptothecin viability
26	SKP1 (S-phase kinase associated protein 1)	4	-0.364
27	SPRYD7 (SPRY domain containing 7)	1	0.0259
28	SPRYD7 (SPRY domain containing 7)	2	0.0357
29	SPRYD7 (SPRY domain containing 7)	3	0.0278
30	SPRYD7 (SPRY domain containing 7)	4	0.349
31	FRAT2 (FRAT regulator of Wnt signaling pathway 2)	1	-0.338
32	FRAT2 (FRAT regulator of Wnt signaling pathway 2)	2	-0.336
33	FRAT2 (FRAT regulator of Wnt signaling pathway 2)	3	0.115
34	AVPR1A (arginine vasopressin receptor 1A)	1	-0.219
35	AVPR1A (arginine vasopressin receptor 1A)	2	-0.163
36	AVPR1A (arginine vasopressin receptor 1A)	3	-0.562
37	AVPR1A (arginine vasopressin receptor 1A)	4	0.0398
38	GSTP1 (glutathione S-transferase pi 1)	1	-0.0837
39	GSTP1 (glutathione S-transferase pi 1)	2	-0.191
40	GSTP1 (glutathione S-transferase pi 1)	3	0.043
41	GSTP1 (glutathione S-transferase pi 1)	4	-0.389
42	MED13 (mediator complex subunit 13)	1	0.598
43	MED13 (mediator complex subunit 13)	2	-0.31
44	MED13 (mediator complex subunit 13)	3	-0.188
45	MED13 (mediator complex subunit 13)	4	-0.276
46	NCBP2 (nuclear cap binding protein subunit 2)	1	-0.733
47	NCBP2 (nuclear cap binding protein subunit 2)	2	-0.6
48	NCBP2 (nuclear cap binding protein subunit 2)	3	0.0601
49	NCBP2 (nuclear cap binding protein subunit 2)	4	0.0448
50	DCLRE1A (DNA cross-link repair 1A)	1	0.366
51	DCLRE1A (DNA cross-link repair 1A)	2	0.0977
52	DCLRE1A (DNA cross-link repair 1A)	3	-0.26
53	DCLRE1A (DNA cross-link repair 1A)	4	-0.0498
54	SMAD6 (SMAD family member 6)	1	0.035
55	SMAD6 (SMAD family member 6)	2	0.0209
56	SMAD6 (SMAD family member 6)	3	-0.187
57	SMAD6 (SMAD family member 6)	4	-0.201
58	DUSP6 (dual specificity phosphatase 6)	1	0.0123
59	DUSP6 (dual specificity phosphatase 6)	2	0.228
60	DUSP6 (dual specificity phosphatase 6)	3	-0.384
61	DUSP6 (dual specificity phosphatase 6)	4	0.531
62	SORCS3 (sortilin related VPS10 domain containing receptor 3)	1	-0.389
63	SORCS3 (sortilin related VPS10 domain containing receptor 3)	2	-0.49
64	SORCS3 (sortilin related VPS10 domain containing receptor 3)	3	-0.11
65	SORCS3 (sortilin related VPS10 domain containing receptor 3)	4	-0.499
66	SCUBE1 (signal peptide, CUB domain and EGF like domain containing 1)	1	0.244
67	SCUBE1 (signal peptide, CUB domain and EGF like domain containing 1)	2	0.237
68	SCUBE1 (signal peptide, CUB domain and EGF like domain containing 1)	3	0.0159
69	CAP1 (cyclase associated actin cytoskeleton regulatory protein 1)	1	-0.476
70	CAP1 (cyclase associated actin cytoskeleton regulatory protein 1)	2	-0.234
71	CAP1 (cyclase associated actin cytoskeleton regulatory protein 1)	3	-0.296
72	CAP1 (cyclase associated actin cytoskeleton regulatory protein 1)	4	-0.101
73	RRM1 (ribonucleotide reductase catalytic subunit M1)	1	-0.399
74	RRM1 (ribonucleotide reductase catalytic subunit M1)	2	-0.594
75	RRM1 (ribonucleotide reductase catalytic subunit M1)	3	0.0815
76	RRM1 (ribonucleotide reductase catalytic subunit M1)	4	-0.0677
77	CCR6 (C-C motif chemokine receptor 6)	1	-0.252
78	CCR6 (C-C motif chemokine receptor 6)	2	0.0401
79	CCR6 (C-C motif chemokine receptor 6)	3	0.551
80	CCR6 (C-C motif chemokine receptor 6)	4	0.217
81	PCBD2 (pterin-4 alpha-carbinolamine dehydratase 2)	1	-0.486
82	PCBD2 (pterin-4 alpha-carbinolamine dehydratase 2)	2	-0.0396
83	PCBD2 (pterin-4 alpha-carbinolamine dehydratase 2)	3	-0.307
84	PCBD2 (pterin-4 alpha-carbinolamine dehydratase 2)	4	-0.159
85	IL18RAP (interleukin 18 receptor accessory protein)	1	-0.531
86	IL18RAP (interleukin 18 receptor accessory protein)	2	-0.252
87	IL18RAP (interleukin 18 receptor accessory protein)	3	-0.582
88	IL18RAP (interleukin 18 receptor accessory protein)	4	0.282
